{
  "source": "patent US20140303092A1",
  "about": "(CHIMERIX, INC., priority 2011, published 2014)",
  "key": {"CMV [1]": {"test_system": "CMV", "experiment": "Study HDP-CDV-350: virologic response of refractory CMV infection in HCT recipients", "assay_type": "in vivo, human (allogeneic HCT recipients)", "settings": "infections refractory to previous therapies", "experimental": "The virologic responses of 16 allogeneic HCT recipients enrolled and treated with HDP-CDV due to refractory CMV infection or disease and/or intolerance to available anti-CMV medications were evaluated.\nAll subjects completed a screening assessment (including obtaining written informed consent and, where applicable, assent) prior to initiating treatment with HDP-CDV.\nHDP-CDV was given orally twice weekly (BIW); 100 mg BIW for adults or 2 mg/kg BIW for pediatrics. […] Eligible subjects received either a weight-based or fixed dose of HDP-CDV. Pediatric subjects (≦12 years old) received a 4 mg/kg total weekly dose (not-to-exceed 200 mg), as either 2 mg/kg twice-weekly (BIW) or 4 mg/kg once-weekly (QW). Adults and adolescent (13-17 years old) subjects received a 200 mg (not to exceed 4 mg/kg) total weekly dose, as either 100 mg BIW or 200 mg QW. […]\nSubjects underwent extensive safety monitoring, including routine safety laboratory assessments, physical examination, and vital sign measurements at regular intervals. In addition, subjects were monitored for viral DNA burden in plasma (DNAemia) and other affected compartments (e.g., urine, stool, CSF, etc.). […] Subjects were monitored for adverse events (AEs) and for selected concomitant medication throughout the entire study, including the 1 month posttreatment follow-up period."}, "CMV [2]": {"test_system": "CMV", "experiment": "Study HDP-CDV-201: prevention or control of CMV infection in R+ HSCT recipients (efficacy)", "assay_type": "in vivo, human (adult allogeneic HSCT recipients)", "settings": "40 mg QW", "experimental": "The clinical study of the current invention (HDP-CDV-201) was a 9-11 week randomized, placebo-controlled, double-blind, dose-escalation study (40 mg weekly [QW], 100 mg QW, 200 mg QW, 200 mg twice-weekly [BIW], and 100 mg BIW) of HDP-CDV for the prevention of CMV infection post-HCT. Treatment was initiated at the time of engraftment and continued until Week 13 post-HCT. HDP-CDV, at various doses, was active and well tolerated in the prevention CMV infection or disease.\nClinical Studies of HDP-CDV were performed and described in detail in the following Examples. For example, HDP-CDV-201 is a placebo-controlled, dose-escalating trial in HSCT CMV (R+) recipients, evaluating the ability of HDP-CDV to prevent or control CMV infection was carried out. Five cohorts were established in which participants or subjects received either placebo or the HDP-CDV orally, in doses ranging from 40 mg weekly (QW) to 200 mg twice weekly (BIW). Subjects who were post-HSCT were enrolled at the time of engraftment and randomized to HDP-CDV or placebo (3 to 1 ratio) and received blinded therapy until approximately 100 day post-transplantation. […]\nThe primary endpoint was defined as the incidence of CMV disease at any time during treatment or CMV DNAemia≧200 copies/mL at the end of treatment. […] Results for the pooled HDP-CDV Cohorts and for each Cohort separately were analyzed versus that for pooled placebo. […]"}},
  "note": "Entries after “also recorded” stand apart in the source; their conditions may differ. At least one compound was matched to its structure with a doubt left.",
  "data": [
    {"compound": "CCCCCCCCCCCCCCCCOCCCOP(=O)(O)COC(CO)Cn1ccc(N)nc1=O", "note": "(centres unmarked) [HDP-CDV]", "values": [
      {"measurement": "overall virologic effect", "setting": "CMV [1]", "value": "substantial reduction of CMV viral load"},
      {"measurement": "anti-CMV activity (in words)", "setting": "CMV [2]", "value": "essentially inactive; also recorded: ineffective"}
    ]}
  ]
}
